# Laboratory results taken from EP1388586A2, “Identification of broadly reactive DR restricted epitopes” (priority 1998, dated 1999).
# Ends that are not written are not given here.
# Tested on: panel of purified HLA DR molecules
# Format: binding, human
# 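Further: competitive inhibition of radiolabeled probe peptide binding to purified HLA DR molecules, with inhibitory potency of unlabeled peptides taken as an approximation of affinity.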
row,Molecule,Total Alleles Bound
1,CC[C@H](C)[C@H](NC(=O)[C@H](CO)NC(=O)[C@H](CO)NC(=O)[C@H](CC(N)=O)NC(=O)[C@@H](NC(=O)[C@@H](NC(=O)[C@H](CC(N)=O)NC(=O)[C@@H](N)Cc1ccccc1)C(C)C)C(C)C)C(=O)NCC(=O)N[C@@H](CC(C)C)C(=O)N[C@H](C(=O)N[C@@H](CCSC)C(=O)N[C@H](C(=O)N[C@@H](CC(C)C)C(=O)N[C@@H](CO)C(=O)O)C(C)C)[C@@H](C)CC [Peptide 27.384],5
2,CC(C)[C@H](NC(=O)[C@H](Cc1ccccc1)NC(=O)[C@H](CCCCN)NC(=O)[C@H](Cc1ccc(O)cc1)NC(=O)[C@H](C)N)C(=O)N[C@H](C(=O)N1CCC[C@H]1C(=O)NCC(=O)N[C@@H](C)C(=O)N[C@@H](C)C(=O)N[C@H](C(=O)N1CCC[C@H]1C(=O)N[C@@H](Cc1ccc(O)cc1)C(=O)N[C@@H](C)C(=O)NCC(=O)O)[C@@H](C)O)C(C)C [Peptide 27.412],8
3,CC[C@H](C)[C@H](NC(=O)[C@H](CC(C)C)NC(=O)[C@H](Cc1ccccc1)NC(=O)[C@@H](NC(=O)[C@@H](NC(=O)[C@@H](NC(=O)[C@H](CC(C)C)NC(=O)[C@H](Cc1ccc(O)cc1)NC(=O)[C@H](CCCCN)NC(=O)[C@@H](NC(=O)[C@@H](N)CC(N)=O)C(C)C)C(C)C)[C@@H](C)CC)C(C)C)C(=O)N[C@@H](Cc1ccccc1)C(=O)N[C@@H](Cc1ccccc1)C(=O)N[C@@H](CC(=O)O)C(=O)N[C@@H](CC(C)C)C(=O)O [Peptide 27.415],3
4,CC(C)C[C@H](NC(=O)CNC(=O)[C@H](C)N)C(=O)N[C@@H](CC(C)C)C(=O)NCC(=O)N[C@@H](CC(N)=O)C(=O)N[C@H](C(=O)N[C@@H](CO)C(=O)N[C@H](C(=O)N[C@H](C(=O)N[C@@H](CC(C)C)C(=O)N[C@@H](CC(C)C)C(=O)NCC(=O)NCC(=O)N[C@H](C(=O)O)C(C)C)C(C)C)[C@@H](C)O)C(C)C [Peptide 1188.13],5
5,CC[C@H](C)[C@H](NC(=O)[C@H](CC(C)C)NC(=O)[C@H](CCCCN)NC(=O)[C@H](CCSC)NC(=O)[C@H](C)NC(=O)[C@H](CC(C)C)NC(=O)[C@@H]1CCCN1C(=O)[C@@H](NC(=O)[C@H](C)NC(=O)[C@H](Cc1c[nH]cn1)NC(=O)[C@H](CC(N)=O)NC(=O)[C@@H](NC(=O)[C@H](Cc1c[nH]c2ccccc12)NC(=O)[C@H](CC(N)=O)NC(=O)[C@@H](N)Cc1c[nH]cn1)C(C)C)C(C)C)C(=O)O [Peptide 1188.34],10
6,CSCC[C@H](NC(=O)[C@H](C)NC(=O)[C@H](CC(C)C)NC(=O)[C@@H]1CCCN1C(=O)[C@@H](NC(=O)[C@H](C)NC(=O)[C@H](Cc1c[nH]cn1)NC(=O)[C@H](CC(N)=O)NC(=O)[C@@H](NC(=O)[C@H](Cc1c[nH]c2ccccc12)NC(=O)[C@H](CC(N)=O)NC(=O)[C@H](Cc1c[nH]cn1)NC(=O)[C@@H](N)CCCNC(=N)N)C(C)C)C(C)C)C(=O)N[C@@H](CCCCN)C(=O)N[C@@H](CC(C)C)C(=O)O [Peptide 1188.45],9
7,CC(C)C[C@H](NC(=O)CNC(=O)[C@H](C)NC(=O)[C@H](CC(C)C)NC(=O)[C@@H](NC(=O)[C@H](CO)NC(=O)[C@@H](NC(=O)[C@H](C)NC(=O)[C@H](CC(C)C)NC(=O)[C@H](CCCCN)NC(=O)[C@H](Cc1ccc(O)cc1)NC(=O)[C@@H](N)CCCCN)[C@@H](C)O)C(C)C)C(=O)N[C@@H](CC(C)C)C(=O)NCC(=O)N[C@@H](CC(N)=O)C(=O)O [Peptide F107.09],9
8,CC(C)C[C@H](NC(=O)CNC(=O)[C@H](C)NC(=O)[C@@H](N)CC(C)C)C(=O)N[C@@H](CC(C)C)C(=O)NCC(=O)N[C@@H](CC(N)=O)C(=O)N[C@H](C(=O)N[C@@H](CO)C(=O)N[C@H](C(=O)N[C@H](C(=O)N[C@@H](CC(C)C)C(=O)N[C@@H](CC(C)C)C(=O)NCC(=O)NCC(=O)O)C(C)C)[C@@H](C)O)C(C)C [Peptide F107.10],5
9,CC(C)[C@H](NC(=O)[C@H](Cc1ccccc1)NC(=O)[C@@H](N)CCCCN)C(=O)N[C@H](C(=O)N1CCC[C@H]1C(=O)NCC(=O)N[C@@H](C)C(=O)N[C@@H](C)C(=O)N[C@H](C(=O)N1CCC[C@H]1C(=O)N[C@@H](Cc1ccc(O)cc1)C(=O)N[C@@H](C)C(=O)NCC(=O)N[C@@H](CCC(=O)O)C(=O)N1CCC[C@H]1C(=O)O)[C@@H](C)O)C(C)C [Peptide F107.17],4
10,CC[C@H](C)[C@H](NC(=O)[C@H](CO)NC(=O)[C@H](CO)NC(=O)[C@H](CC(N)=O)NC(=O)[C@@H](NC(=O)[C@@H](NC(=O)[C@H](CC(N)=O)NC(=O)[C@H](Cc1ccccc1)NC(=O)[C@@H](N)C(C)C)C(C)C)C(C)C)C(=O)NCC(=O)N[C@@H](CC(C)C)C(=O)N[C@H](C(=O)N[C@@H](CCSC)C(=O)N[C@H](C(=O)N[C@@H](CC(C)C)C(=O)O)C(C)C)[C@@H](C)CC [Peptide F107.23],4
11,GPPTALRSFGFAFGYM [Peptide 1136.29],7
12,LFHYYFLSEKAPGSTV [Peptide 1136.04],6
13,WLFPRFKFVWVTYASW [Peptide 1136.44.01],2
